# In PubChem BioAssay AID2685 (National Center for Advancing Translational Sciences (NCATS), 2010):
# Some of the results follow. Further columns of the screen follow, without active or inactive calls. The list favours compounds with an active or inconclusive main result. Potencies come from curve fits of mixed quality, noted in brackets.
# Test: qHTS Assay for Lipid Storage Modulators in Drosophila S3 Cells;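 on cell number change: cells counted by Cell Tracker Red CMTPX staining in the red channel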
# Settings: BODIPY lipid droplet fluorescence, 18-24 h; for cell number change: measured here: cell count max response, cells fed with added oleic acid
# Procedure, shortened: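 Drosophila S3 cells loaded with oleic acid (400 uM, as added) and compounds at several concentrations; lipid droplets imaged by 488-nm laser-scanning cytometry, 500–530 nm intensity and object ratio to cell channel. Percent activity normalized to 20 uM Triacsin C.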
# [1] = measured here: lipid fluorescence (Fed channel) AC50, cells fed with added oleic acid
# [2] = measured here: cell number channel AC50, cells fed with added oleic acid
SMILES,cell number change [%],AC50 [1],AC50 [2]
CC(=O)N1N=C(c2c(-c3ccccc3)c3cc(Br)ccc3[nH]c2=O)CC1c1ccco1 (stereo not given),13.3,"0.92 µM [rising, full curve, poor fit]",
O=c1[nH][nH]c(-c2ccccc2O)c1C(C[N+](=O)[O-])c1cccc(Cl)c1 (stereo not given),33.3,,"4.11 µM [rising, full curve, poor fit]"
C/C(=N/OCC(=O)Nc1ccc(C)cc1C)c1cccs1,39.3,,"0.291 µM [rising, full curve, poor fit]"
Cc1cc(=O)n2nc(-c3ccc(C(F)(F)F)cc3)sc2n1,31.4,"0.0651 µM [rising, full curve, poor fit]","2.06 µM [rising, full curve]"
Cc1[nH][nH]c(=O)c1C(c1ccc(-c2ccc(F)cc2)o1)c1c(C)[nH][nH]c1=O,-20.5,"1.3 µM [falling, full curve]",
CC(C)c1ccc2c(c1)C1Cc3ccccc3C1N2 (stereo not given),,"2.31 µM [falling, partial curve, poor fit]",
CCOc1ccc(S(=O)(=O)N2CCC(C(=O)N3CCc4ccccc4C3)CC2)cc1,,"29.1 µM [falling, single point]",
Cc1cc(C)n2nc(SCC(=O)c3c(N)n(CC(C)C)c(=O)n(C)c3=O)nc2n1,0.137,,
CCN1c2ccccc2-c2nc3ccccc3n2C1c1cccnc1 (stereo not given),11.6,"0.0731 µM [rising, full curve, poor fit]",
CCOC(=O)C1CCN(S(=O)(=O)c2c(C)[nH]c(C)c2C(=O)N2CCCCC2)CC1,,,"0.13 µM [rising, full curve, poor fit]"
COc1ccc(C(C)NC(=O)c2ccc(Br)cc2)cc1OC (stereo not given),61.5,"29.1 µM [rising, single point]","14.6 µM [rising, partial curve, poor fit]"
O=C(NCc1ccccc1)c1ccc2c(c1)OCCO2,-0.771,,
CCSc1ccccc1C(=O)NCCc1ccccc1,4.14,,
CC(Cc1ccccn1)NC(=O)c1ccc(OC2CCN(Cc3ccccn3)CC2)cc1 (stereo not given),-15.4,"32.6 µM [falling, partial curve, poor fit]",
NC(N)=N/N=C/c1cccc(Cl)c1Cl,61.8,"0.731 µM [rising, single point]","20.6 µM [rising, single point]"
CC(C)CC(=O)N1CCN(Cc2ccc(C(F)(F)F)cc2)CC1,-3.57,"2.06 µM [rising, partial curve]",
Cc1ccc2c(CN3CCCCC3C)cc(=O)oc2c1 (stereo not given),38.9,"0.58 µM [rising, single point]","14.6 µM [rising, partial curve, poor fit]"
Cn1c(=O)c2c(SCc3ccccn3)nc(CC(C)(C)C)nc2n(C)c1=O,,"1.84 µM [rising, partial curve]","1.64 µM [rising, partial curve]"
NC(=O)Cn1c(=O)oc2ccccc21,-42.7,"0.651 µM [falling, single point]","13 µM [falling, partial curve]"

SMILES,cell number change [%],AC50 [1],AC50 [2]
CCN(C(=O)CSc1nnc(C)n1-c1cccc(C)c1)C1CCS(=O)(=O)C1 (stereo not given),,"29.1 µM [falling, single point]",
Cc1ccccc1C1=Nn2c(nnc2-c2ccco2)SC1,,"0.366 µM [rising, single point]",
CCN(CC)S(=O)(=O)c1ccc(NC(=O)c2ccc(CN3CCOCC3)cc2)cc1,,"2.31 µM [falling, partial curve, poor fit]",
COc1ccc(CNC(=O)c2ccc3ccccc3n2)cc1OC,-9.52,,
O=C(CS(=O)(=O)Cc1ccccc1)Nc1ccc(S(=O)(=O)N2CCCCCC2)cc1,11,"16.4 µM [falling, partial curve]",
O=C(NCCN1C(=O)S/C(=C\c2ccc(OC(F)F)cc2)C1=O)[C@@H]1CCCN1C(=O)c1cccs1,-8.67,"11.6 µM [falling, single point]",
COc1cccc(/C=N/n2c(-c3ccco3)nc3ccccc3c2=O)c1,-33.9,"32.6 µM [falling, single point]","32.6 µM [falling, single point]"
COc1ccc2[nH]c(=O)c(COC(=O)c3ccco3)cc2c1,95.3,,"29.1 µM [rising, single point]"
CNS(=O)(=O)c1cccc(C(=O)OCC(=O)N(CCC#N)c2ccccc2)c1,-30.5,"0.164 µM [falling, full curve, poor fit]","2.31 µM [falling, partial curve, poor fit]"
C=CCNC(=O)C1CC(=O)N(c2ccc(OCC(=O)Nc3ccc(OC)cc3)cc2)C1 (stereo not given),,,"6.51 µM [rising, single point]"
NS(=O)(=O)c1ccc(NC(=O)CN2CCCC2)cc1,9.56,"2.59 µM [rising, single point]",
CC1(c2ccc3noc(-c4cccc(F)c4)c3c2)OCCO1,,"29.1 µM [rising, single point]",
CC(C)=N/N=C1/NC(=O)C(Cc2ccccc2)S1 (stereo not given),1.09,"0.731 µM [rising, single point]",
COC(=O)CC1C(C(=O)OC)ON2OC(C(=O)OC)C(C(=O)OC)C12 (stereo not given),0.658,"6.51 µM [falling, single point]",
COc1cccc(CN(C)S(=O)(=O)c2cccs2)c1,-38.1,,"23.1 µM [falling, single point]"
CCN(c1ccc(NC(=O)CSCc2c(C)noc2C)cc1)C(C)C,0.963,"0.92 µM [rising, full curve, poor fit]",
CN(Cc1ccccc1)C(=O)c1cc2ccccc2o1,73.2,"9.2 µM [rising, partial curve]","1.84 µM [rising, full curve]"
CC1CN(C(=O)c2cccc(COc3ccccc3Cl)c2)CC(C)O1 (stereo not given),1.87,"0.082 µM [falling, single point]",

# Retrieved by structure from above (2):
SMILES,cell number change [%],AC50 [1],AC50 [2]
Cc1cc(C)n2nc(SCC(=O)c3c(N)n(CC(C)C)c(=O)n(C)c3=O)nc2n1,0.137,,
CC1CN(C(=O)c2cccc(COc3ccccc3Cl)c2)CC(C)O1 (stereo not given),1.87,"0.082 µM [falling, single point]",
